The whole screen tested about 400,000 compounds, of which about 3,700 (0.93%) were called active. The shares of active, inactive and inconclusive entries below differ from those in the screen. Calls follow the shape of the dose curve; as a rule, active = well fitted inhibition curve with a large enough effect; inconclusive = small, poorly fitted or top-dose-only effect, or another doubt; inactive = no such curve, though single readings can be large or run the other way. Where the call is inconclusive, the potency comes from a doubtful curve fit. Some structures have more than one record in an assay (separate samples or runs), and their calls can disagree.
molecular target: Vitamin D3 receptor (Homo sapiens) (UniProt P11473); experiment: Inhibitors of the vitamin D receptor (VDR): qHTS; settings: VDR-SRC2-3 peptide fluorescence polarization, 2 h; max response, negative = inhibition: stronger effect = lower value
Outline: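 Inhibition of the VDR/SRC2-3 peptide interaction is quantified by fluorescence polarization. Compounds (23 nl, pintool) incubate with the reagents for 2 hours at ambient room temperature.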
% is scaled to controls: 0 for no effect and ±100 for the full control effect; potency is read from the fitted curve at half-maximal effect.

Chains of the proteins cited; added tags and fusions are not shown. Lines headed by an entry give the natural chain unless they say otherwise; changes in a name come on top.
UniProt P11473: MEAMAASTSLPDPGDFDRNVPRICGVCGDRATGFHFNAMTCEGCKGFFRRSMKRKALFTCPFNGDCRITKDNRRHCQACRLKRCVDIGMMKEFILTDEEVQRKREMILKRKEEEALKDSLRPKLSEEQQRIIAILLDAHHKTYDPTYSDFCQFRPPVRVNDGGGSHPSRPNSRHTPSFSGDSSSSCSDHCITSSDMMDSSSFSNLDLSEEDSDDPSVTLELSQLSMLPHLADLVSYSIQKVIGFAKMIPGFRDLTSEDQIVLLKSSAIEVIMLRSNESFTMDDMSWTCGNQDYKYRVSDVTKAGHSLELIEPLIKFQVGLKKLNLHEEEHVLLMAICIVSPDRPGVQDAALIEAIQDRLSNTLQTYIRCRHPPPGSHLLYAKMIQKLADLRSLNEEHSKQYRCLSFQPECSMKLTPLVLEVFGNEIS

Max response, negative = inhibition, inactive:
CC(C)Cn1c(-c2cccs2)nc2nc3ccccc3nc21 1.38%, CSc1cccc(NC(=S)N2CCCN(Cc3cccc(Cl)c3)C2)c1 -1.12%, Cc1cccc(-n2c(C)cc(/C=C3/C(=N)N4C(c5ccccc5)=CSC4=NC3=O)c2C)c1 -2.71%, C[C@@H]1CN([C@H](C)CO)C(=O)c2cccc(NC(=O)c3ccncc3)c2O[C@@H]1CN(C)Cc1ccc(C(=O)O)cc1 -5.01%, COC(=O)c1sc(N2C(=O)C(O)=C(C(=O)c3ccc(C)o3)C2c2ccc(OC)c(OC)c2)nc1C (stereo unspecified) -11.6%, CC1Cc2cc(S(=O)(=O)N3CCCCC3C)ccc2N1C(=O)C1CCC1 (stereo unspecified) -4.4%, CC(=O)N1CCc2cc(Br)cc(S(=O)(=O)CCC(=O)N3CCN(c4ccccc4Cl)CC3)c21 -1.17%, O=c1c2c(-c3ccc([N+](=O)[O-])cc3)csc2nc2n1CCC2 -14.5%, CCC(C)NC(=O)Cn1c(=O)n(Cc2ccc(C(=O)NCc3ccc(C)cc3)cc2)c(=O)c2ccccc21 (stereo unspecified) -25.4%, Cc1cc([N+](=O)[O-])cc([N+](=O)[O-])c1NCC(C)C 7.98%, CC(=O)c1ccc(NC(=O)C(C)n2c3ccccc3c3nc(=O)cc(C)n32)cc1 (stereo unspecified) -17.5%, Cn1c(-c2ccsc2)c(-c2cccs2)c2cc(Br)ccc21 9.09%, Cc1cc(Cl)ccc1Nc1nc(NCc2ccco2)nc2nccnc12 -13.1%, COc1ccc(-c2ccc(OC)c(C3C4C=CCCC4(C)C(=O)N3Cc3ccccc3)c2)cc1OC (stereo unspecified) -7.1%

Potency, active:
CC(=O)N1CCN(c2ccc(NC(=O)c3ccc(OCc4ccccc4)cc3)cc2)CC1 28.2 µM, COc1ccc(Cl)cc1C(Nc1cccnc1)c1ccc2cccnc2c1O (stereo unspecified) 20 µM, COc1cc(C)c(/C=C/C(C)=C/C=C/C(C)=C/C(=O)O)c(C)c1C 44.7 µM, CN(C)c1ccc(NC(=O)N2CCOCC2)cc1 14.1 µM, CN(C)[C@H]1C(=O)C(C(=O)NCN2CCCC2)=C(O)[C@]2(O)C(=O)C3=C(O)c4c(O)cccc4[C@@](C)(O)[C@H]3C[C@@H]12 31.6 µM, C=CC(C1=CC(=O)C(OC)=C(OC)C1=O)c1ccccc1 (stereo unspecified) 1 µM, CCN1CCC2(CC1)N=C(c1ccc(F)cc1)C(=S)N2C(=O)c1ccc(C(C)(C)C)cc1 79.4 µM, Fc1ccc(Nc2ccnc(-c3ccoc3)n2)cc1 25.1 µM, N#C/C(=C\c1ccc(C#N)cc1)C(=O)c1ccccc1 79.4 µM, CN(C)C(=S)N=c1ssc(=S)n1Cc1ccccc1 39.8 µM, CC(C)C(C(=O)O)N1C(=O)/C(=C/c2ccc(Br)cc2)SC1=S (stereo unspecified) 5.01 µM, COc1ccc(CN2C(=O)/C(=C/c3ccncc3)SC2=S)cc1 50.1 µM, CCOC(=O)C1C(=O)NC(SCC(=O)Nc2nccs2)=C(C#N)C1c1ccccc1OCC (stereo unspecified) 35.5 µM

Potency, inconclusive:
O=C1C(=O)N(CCCc2ccccc2)c2ccccc21 56.2 µM [inhibitor, partial curve, poor fit], NC(=S)NN=Cc1nccc2ccccc12 89.1 µM [inhibitor, single point], Cc1cccc(CNc2ccnc(-c3ccc(N(C)C)cc3)n2)c1 89.1 µM [inhibitor, partial curve], O=C1C=C(Nc2cccc3cccnc23)c2ccccc2C1=O 17.8 µM [inhibitor, full curve], CC(/C=C1\SC(=S)N(CCC(=O)Nc2cccc(C(=O)O)c2)C1=O)=C\c1ccccc1 89.1 µM [inhibitor, single point], c1ccc(-c2cc(N3CCOCC3)nc3ccccc23)cc1 39.8 µM [inhibitor, single point], CCc1ccccc1OCC(=O)Nc1nc(-c2cccnc2)cs1 79.4 µM [inhibitor, partial curve, poor fit], O=C(Nc1ccc(N2CCOCC2)cc1N1CCOCC1)c1ccco1 63.1 µM [inhibitor, partial curve, poor fit], Cc1cc2oc(=O)cc(Cn3ncc(Cl)c(Cl)c3=O)c2cc1Cl 28.2 µM [inhibitor, partial curve, poor fit], CN(C)C=Nc1c(Br)cc(Br)c2nonc12 56.2 µM [inhibitor, partial curve, poor fit], COc1ccc(Cl)cc1NC(=O)CSc1nnc(Cc2ccc(C)cc2)c(=O)[nH]1 89.1 µM [inhibitor, single point], CCCCN(CC)C(=O)C1CCCN(S(=O)(=O)c2cccc3nsnc23)C1 (stereo unspecified) 79.4 µM [inhibitor, single point], CC[C@@]1(O)C[C@H](O[C@H]2C[C@@H](N(C)C)[C@@H](O[C@H]3C[C@@H](O)[C@@H](O[C@H]4CCC(=O)[C@@H](C)O4)[C@@H](C)O3)[C@@H](C)O2)c2c(cc3c(c2O)C(=O)c2c(O)cccc2C3=O)[C@H]1C(=O)OC 5.62 µM [inhibitor, full curve, poor fit], COc1cc(N=c2ssnc2Cl)cc(OC)c1OC 4.47 µM [inhibitor, partial curve, poor fit], COC(=O)c1ccc2nc(-c3ccc(S(C)(=O)=O)cc3)cn2c1 89.1 µM [inhibitor, partial curve, poor fit], Cn1nc(C(C)(C)C)c([N+](=O)[O-])c1C(=O)NCCO 79.4 µM [inhibitor, partial curve, poor fit], Cc1ccc(CC(C(=O)O)C(C)C(=O)Nc2ccc(F)cc2)cc1 (stereo unspecified) 20 µM [inhibitor, partial curve, poor fit], COc1ccc(C(=O)Nc2cccc(/C=C(\CCC(=O)O)c3nc4ccccc4s3)c2)cc1 28.2 µM [inhibitor, single point], CC(=O)N1CCc2c(sc3c2c(=O)n(CCc2ccccc2)c(=O)n3Cc2ccccc2C)C1 79.4 µM [inhibitor, single point], CC1CCCC(NC(=O)C2c3ccccc3C(=O)N2Cc2cccs2)C1C (stereo unspecified) 100 µM [inhibitor, single point], COc1ccccc1NC=C1C(=O)OC(C)(C)OC1=O 79.4 µM [inhibitor, partial curve, poor fit], COc1ccccc1NC(=O)CSc1nnc(C2CCCCC2)n1N 89.1 µM [inhibitor, partial curve, poor fit], Cc1sc(NC(=O)CCl)c(C(=O)c2ccccc2)c1C 79.4 µM [inhibitor, partial curve, poor fit], CC1CC(=O)Nc2ccccc2N1S(=O)(=O)c1ccccc1 (stereo unspecified) 12.6 µM [inhibitor, partial curve, poor fit], Nc1ccccc1C#CCCCCO 12.6 µM [inhibitor, partial curve, poor fit], CCCC(=O)Oc1cccc(C2NC(=O)c3ccccc3O2)c1 (stereo unspecified) 79.4 µM [inhibitor, partial curve, poor fit], CN1CCc2c(C#N)c(N3CCCCC3)nc(NCc3ccccc3)c2C1 35.5 µM [inhibitor, partial curve], CC(=O)OCCNc1cc(N2CCN(C)CC2)c2noc3c2c1C(=O)c1ccccc1-3 44.7 µM [inhibitor, partial curve, poor fit], CCOc1cc(/C=N/NC(=O)c2cccnc2)ccc1OCC(=O)N(C)C 89.1 µM [inhibitor, partial curve, poor fit], N#C/C(=C\c1cc(Br)ccc1F)C(=O)NC1CC1 79.4 µM [inhibitor, partial curve], Cc1cccc(N2C(=O)SC(SC(=Nc3ccccc3)Nc3ccccc3)C2=O)c1 (stereo unspecified) 79.4 µM [inhibitor, partial curve, poor fit], Fc1cnc(Cl)nc1NC1CCCCC1 100 µM [inhibitor, single point], CCOc1ccc(-n2ccnc(SCC(=O)Nc3ccc(OC)cc3OC)c2=O)cc1 89.1 µM [inhibitor, single point], COc1ccccc1-n1cnnc1SCC(=O)c1c[nH]c2ccccc12 11.2 µM [inhibitor, partial curve, poor fit], CO[C@]1(NC(=O)[C@H](C(=O)O)c2ccc(O)cc2)C(=O)N2C(C(=O)O)=C(CSc3nnnn3C)CO[C@H]21 31.6 µM [inhibitor, partial curve, poor fit], Cc1nnsc1C(=O)NNc1ccc(C(C)(C)C)cc1 10 µM [inhibitor, full curve, poor fit], COc1ccccc1C1CC(=O)Oc2ccc(C(C)(C)C)cc21 (stereo unspecified) 126 µM [inhibitor, single point], CCn1c(C(=O)OC)cc2c1ccn2-c1ccc(F)cc1 7.08 µM [inhibitor, single point], O=C1C(=O)N(Cc2ccc(Cl)c(Cl)c2)c2ccccc21 3.98 µM [inhibitor, full curve, poor fit]

From PubChem BioAssay AID504847 (National Center for Advancing Translational Sciences (NCATS), 2011)
